Measurements: paper PMC6890807
No constants are given. Whether binding was seen depends on the method and setting. Binding seen in cells or lysates may run through a third protein. Some binding calls cover weakened binding; strength is not graded here. Sequences can lack the tags named with a protein.

Target: T1, His6-ZEB1 (full-length rat ZEB1 in pcDNA4/HisMaxB) (rat) (UniProt Q62947)
T1 sequence: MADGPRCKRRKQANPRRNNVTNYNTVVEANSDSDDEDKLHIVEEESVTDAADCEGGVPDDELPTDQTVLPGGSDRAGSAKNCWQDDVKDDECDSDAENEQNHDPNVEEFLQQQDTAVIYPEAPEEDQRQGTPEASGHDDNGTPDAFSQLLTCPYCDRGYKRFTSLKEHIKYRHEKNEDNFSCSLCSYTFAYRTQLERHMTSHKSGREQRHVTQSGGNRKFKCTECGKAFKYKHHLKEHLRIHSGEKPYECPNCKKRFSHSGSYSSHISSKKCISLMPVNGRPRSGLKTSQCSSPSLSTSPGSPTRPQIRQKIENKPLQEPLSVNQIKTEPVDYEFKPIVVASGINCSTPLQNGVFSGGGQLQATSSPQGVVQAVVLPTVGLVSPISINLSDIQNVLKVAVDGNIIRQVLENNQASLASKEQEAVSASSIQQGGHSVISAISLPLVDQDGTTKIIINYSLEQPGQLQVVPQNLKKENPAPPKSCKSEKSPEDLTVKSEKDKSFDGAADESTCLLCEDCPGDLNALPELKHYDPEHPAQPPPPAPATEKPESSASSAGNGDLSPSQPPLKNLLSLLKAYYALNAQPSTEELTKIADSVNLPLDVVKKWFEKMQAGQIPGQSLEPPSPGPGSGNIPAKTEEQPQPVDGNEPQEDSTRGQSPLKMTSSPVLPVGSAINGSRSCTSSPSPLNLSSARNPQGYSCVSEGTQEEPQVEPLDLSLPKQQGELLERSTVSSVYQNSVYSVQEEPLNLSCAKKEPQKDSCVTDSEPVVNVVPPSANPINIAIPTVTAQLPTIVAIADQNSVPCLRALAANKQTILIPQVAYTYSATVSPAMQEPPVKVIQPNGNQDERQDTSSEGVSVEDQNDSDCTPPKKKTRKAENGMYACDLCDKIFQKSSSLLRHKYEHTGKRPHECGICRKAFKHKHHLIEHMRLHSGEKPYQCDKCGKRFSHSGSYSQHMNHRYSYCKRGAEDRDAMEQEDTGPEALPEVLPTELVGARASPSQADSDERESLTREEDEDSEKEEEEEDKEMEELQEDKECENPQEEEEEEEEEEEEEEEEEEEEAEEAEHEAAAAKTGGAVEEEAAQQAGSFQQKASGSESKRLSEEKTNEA
Test: pull-down; His6-ZEB1 and untagged PKCα co-transfected in HEK-293T for 48 h; cells pretreated with PMA 10 nM for 15 min; Ni-NTA agarose, non-denaturing conditions; Western blot of the eluate

- binding: binds
Substance: PKCα (untagged) (from UniProt P17252 1-672) (enzyme)
